Reference: article PMC9388121
Results are given in words; binding and its absence hold for the method and conditions named. For some assays here: In cells and extracts the contact can be indirect. Some entries that bind do so weakly or less than the wild type.

Sequences of proteins named here, by UniProt entry; tags and fusion partners are left off. A change or cut given only in a name is not applied to a line headed by its entry. A line that says so, or that is headed by a name, gives the form on record, which may keep a tag or linker. Residues count along the entry.
UniProt Q96BN8: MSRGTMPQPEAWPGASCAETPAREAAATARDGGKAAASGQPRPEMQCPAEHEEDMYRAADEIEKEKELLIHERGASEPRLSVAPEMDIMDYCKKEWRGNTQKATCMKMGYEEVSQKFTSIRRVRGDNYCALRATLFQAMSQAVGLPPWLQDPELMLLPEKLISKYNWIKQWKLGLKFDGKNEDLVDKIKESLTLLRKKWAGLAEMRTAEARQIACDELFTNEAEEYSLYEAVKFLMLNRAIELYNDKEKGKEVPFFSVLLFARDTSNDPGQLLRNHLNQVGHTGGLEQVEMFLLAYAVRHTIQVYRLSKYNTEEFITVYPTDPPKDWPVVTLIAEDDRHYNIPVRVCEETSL
HA-OTULIN N terminus (N): residues 1-80 of Q96BN8
HA-OTULIN C17/47A (Q96BN8, form named): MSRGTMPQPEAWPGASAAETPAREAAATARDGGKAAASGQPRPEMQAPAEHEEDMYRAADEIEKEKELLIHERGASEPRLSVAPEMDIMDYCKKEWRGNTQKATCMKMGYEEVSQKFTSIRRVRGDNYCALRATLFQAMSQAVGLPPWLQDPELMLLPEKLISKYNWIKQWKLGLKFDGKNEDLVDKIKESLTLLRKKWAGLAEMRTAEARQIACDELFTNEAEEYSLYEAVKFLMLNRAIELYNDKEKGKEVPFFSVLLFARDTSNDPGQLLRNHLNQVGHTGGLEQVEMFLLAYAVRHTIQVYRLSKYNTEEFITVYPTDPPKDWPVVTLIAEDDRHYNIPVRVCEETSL
HA-OTULIN K64/66R (Q96BN8, form named): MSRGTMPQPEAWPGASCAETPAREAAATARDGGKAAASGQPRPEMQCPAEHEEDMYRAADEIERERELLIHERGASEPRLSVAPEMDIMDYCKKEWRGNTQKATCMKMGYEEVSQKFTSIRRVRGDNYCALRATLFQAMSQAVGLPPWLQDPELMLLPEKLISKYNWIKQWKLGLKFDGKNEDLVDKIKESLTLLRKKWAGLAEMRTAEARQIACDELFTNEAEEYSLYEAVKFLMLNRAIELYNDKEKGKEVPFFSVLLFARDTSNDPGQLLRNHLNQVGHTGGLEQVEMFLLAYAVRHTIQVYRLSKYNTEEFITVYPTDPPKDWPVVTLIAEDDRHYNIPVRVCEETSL

How the values were obtained:
HA-OTULIN N terminus (N) = HA-OTULIN N terminus (N) (UniProt Q96BN8); experiment: co-IP; HEK293T cotransfected with two differently tagged OTULIN constructs (Myc, HA, GFP), 48 h; IP anti-HA or anti-Myc; in Fig. 3H also after Etop (10 μM, 2 h) or CPT (10 μM)
HA-OTULIN C17/47A = HA-OTULIN C17/47A (UniProt Q96BN8); experiment: non-reducing SDS-PAGE and immunoblot; OTULIN-KO MDA-MB-231 reconstituted with OTULIN constructs (48 h), Dox (2 μg/mL, 2 h); lysates blotted without DTT or 2-ME; n = 3 independent experiments
Myc-OTULIN = Myc-OTULIN (UniProt Q96BN8); experiment: co-IP; HEK293T cotransfected with two differently tagged OTULIN constructs (Myc, HA, GFP), 48 h; IP anti-HA or anti-Myc; in Fig. 3H also after Etop (10 μM, 2 h) or CPT (10 μM)

Row | binding (Myc-OTULIN) | Substance | other results
1 | binds | HA-OTULIN K64/66R (from UniProt Q96BN8 1-352) (enzyme) | –
2 | binds | HA-OTULIN Y56F (from UniProt Q96BN8 1-352) (enzyme) | –

More lines, now with the values behind:

Row | Substance | binding (Myc-OTULIN) | other results
3 | GFP-OTULIN (from UniProt Q96BN8 1-352) (enzyme) | – | binding (HA-OTULIN N terminus (N)): binds
4 | HA-OTULIN C17/47A (from UniProt Q96BN8 1-352) (enzyme) | – | binding (HA-OTULIN C17/47A): no binding
5 | HA-OTULIN C129S (from UniProt Q96BN8 1-352) (enzyme) | binds | –
